Reference: PubChem BioAssay AID1259425 (University of Nebraska Medical Center, 2018)

- Aim: 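Find knockdowns that reproduce the gene expression pattern seen when KSR1 is lost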 (primary screen)
- Cells: HCT116 human colon cancer cells
- Reagents: siRNA pool against human genes, 50 nM siRNA
- Measured: 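After 50 nM siRNA pool, branched-DNA assay measures six marker transcripts per well, minus blank, normalised to the geometric mean of two housekeeping transcripts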
- Reading the numbers: BNIP3L mRNA: higher = more BNIP3L transcript after knockdown
This is a random part of about 14,000 deposited reagents. Not all columns of the deposit are shown. Reagent sequences are not shown. Not stated in the record: the time to read-out.

gene | PubChem SID | BNIP3L mRNA, set 1
PRAF2 | SID363997909 | 0.0933
SPATA2 | SID363996889 | 0.126
TNP2 | SID363996331 | 0.0431
ARRDC2 | SID363999644 | 0.0863
CRHR2 | SID363993096 | 0.22
SSH2 | SID364004369 | 0.0684
DHODH | SID363992638 | 0.0951
TMA16 | SID364000997 | 0.135
RAB3GAP2 | SID363998298 | 0.0805
RCBTB1 | SID364000861 | 0.111
ADGRG1 | SID363996572 | 0.2
PEX2 | SID363991650 | 0.0905
CSRP2 | SID363992602 | 0.138
AADAC | SID363992383 | 0.217
TMEM144 | SID364000990 | 0.107
IFI16 | SID363996431 | 0.207
YWHAZ | SID363994514 | 0.0892
GTF2IRD1 | SID363996575 | 0.127
GLI1 | SID363996189 | 0.29
MIOS | SID364001323 | 0.107
